Test results: paper PMC4961226
These are yes or no findings as the source states them, for the method shown. In cells and extracts the contact can be indirect. Some entries that bind do so weakly or less than the wild type.

Amino acid sequences for entries named in this document (tags omitted). Residues count along the entry.
UniProt P25445, residues 26-335: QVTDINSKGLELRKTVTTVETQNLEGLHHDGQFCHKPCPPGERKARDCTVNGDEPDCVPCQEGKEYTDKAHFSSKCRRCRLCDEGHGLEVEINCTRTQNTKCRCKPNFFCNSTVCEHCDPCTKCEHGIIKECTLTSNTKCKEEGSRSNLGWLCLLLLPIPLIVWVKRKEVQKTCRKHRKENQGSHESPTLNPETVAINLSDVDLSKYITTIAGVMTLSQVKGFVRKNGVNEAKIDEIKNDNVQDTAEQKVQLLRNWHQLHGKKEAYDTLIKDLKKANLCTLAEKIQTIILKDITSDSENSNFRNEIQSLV

What was measured:
[1] = target: CD95 (human (endogenous in CEM T cells, Th17 cells and activated PBLs)) (UniProt P25445); assay: co-IP; CEM T cells stimulated with cl-CD95L (100 ng/mL), lysed, CD95 immunoprecipitated, immunoblotting
[2] = target: CD95 (human (endogenous in CEM T cells, Th17 cells and activated PBLs)) (UniProt P25445); assay: proximity ligation; CEM T cells and Th17 cells from peripheral blood stimulated with cl-CD95L (100 ng/mL) for indicated times; anti-CD95 and anti-PLCγ1 mAbs

binding [1]: binds | binding [2]: binds
B1: phospholipase Cγ1 (enzyme, UniProt P19174 1-1290)
chain: MAGAASPCANGCGPGAPSDAEVLHLCRSLEVGTVMTLFYSKKSQRPERKTFQVKLETRQITWSRGADKIEGAIDIREIKEIRPGKTSRDFDRYQEDPAFRPDQSHCFVILYGMEFRLKTLSLQATSEDEVNMWIKGLTWLMEDTLQAPTPLQIERWLRKQFYSVDRNREDRISAKDLKNMLSQVNYRVPNMRFLRERLTDLEQRSGDITYGQFAQLYRSLMYSAQKTMDLPFLEASTLRAGERPELCRVSLPEFQQFLLDYQGELWAVDRLQVQEFMLSFLRDPLREIEEPYFFLDEFVTFLFSKENSVWNSQLDAVCPDTMNNPLSHYWISSSHNTYLTGDQFSSESSLEAYARCLRMGCRCIELDCWDGPDGMPVIYHGHTLTTKIKFSDVLHTIKEHAFVASEYPVILSIEDHCSIAQQRNMAQYFKKVLGDTLLTKPVEISADGLPSPNQLKRKILIKHKKLAEGSAYEEVPTSMMYSENDISNSIKNGILYLEDPVNHEWYPHYFVLTSSKIYYSEETSSDQGNEDEEEPKEVSSSTELHSNEKWFHGKLGAGRDGRHIAERLLTEYCIETGAPDGSFLVRESETFVGDYTLSFWRNGKVQHCRIHSRQDAGTPKFFLTDNLVFDSLYDLITHYQQVPLRCNEFEMRLSEPVPQTNAHESKEWYHASLTRAQAEHMLMRVPRDGAFLVRKRNEPNSYAISFRAEGKIKHCRVQQEGQTVMLGNSEFDSLVDLISYYEKHPLYRKMKLRYPINEEALEKIGTAEPDYGALYEGRNPGFYVEANPMPTFKCAVKALFDYKAQREDELTFIKSAIIQNVEKQEGGWWRGDYGGKKQLWFPSNYVEEMVNPVALEPEREHLDENSPLGDLLRGVLDVPACQIAIRPEGKNNRLFVFSISMASVAHWSLDVAADSQEELQDWVKKIREVAQTADARLTEGKIMERRKKIALELSELVVYCRPVPFDEEKIGTERACYRDMSSFPETKAEKYVNKAKGKKFLQYNRLQLSRIYPKGQRLDSSNYDPLPMWICGSQLVALNFQTPDKPMQMNQALFMTGRHCGYVLQPSTMRDEAFDPFDKSSLRGLEPCAISIEVLGARHLPKNGRGIVCPFVEIEVAGAEYDSTKQKTEFVVDNGLNPVWPAKPFHFQISNPEFAFLRFVVYEEDMFSDQNFLAQATFPVKGLKTGYRAVPLKNNYSEDLELASLLIKIDIFPAKENGDLSPFSGTSLRERGSDASGQLFHGRAREGSFESRYQQPFEDFRISQEHLADHFDSRERRAPRRTRVNGDNRL
